Measurements reported in paper PMC7819943, “Rice protein-binding microarrays: a tool to detect cis-acting elements near promoter regions in rice”.
This is one part of the list.

The chains behind the UniProt entries cited, without tags or fusion partners.
UniProt Q0JBA9, entry or part of it: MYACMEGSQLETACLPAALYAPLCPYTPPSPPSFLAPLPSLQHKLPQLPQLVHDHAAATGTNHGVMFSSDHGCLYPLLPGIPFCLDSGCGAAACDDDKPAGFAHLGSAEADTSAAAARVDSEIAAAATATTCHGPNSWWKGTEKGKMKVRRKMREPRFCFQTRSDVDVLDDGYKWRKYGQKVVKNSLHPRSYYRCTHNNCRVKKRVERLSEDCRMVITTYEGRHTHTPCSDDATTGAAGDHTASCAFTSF

target: OsWRKY34 (Oryza sativa, UniProt Q0JBA9 1-250); test: protein-binding microarray (RPBM); PBS, 2% BSA, 51.3 ng/ul salmon testes DNA, 50 uM zinc acetate, 200 nM TF, 25 C, 1 h; high values mean tight binding; settings: protein: recombinant; tags: N-terminal polyhistidine and DsRed monomer fusion (pET32a); label: CyDye5-dUTP incorporated in the synthesized complementary strand; 3' TTTTT single-stranded linker to array surface; dsDNA, one strand shown
Outline: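 Transcription factors were each fused at the N-terminus to a polyhistidine tag plus DsRed and expressed in E. coli BL21-CodonPlus before Ni–NTA purification. Binding to a double-stranded custom Agilent array was carried out with 200 nM protein at 25 °C for 1 h in PBS, 2% BSA, salmon testes DNA and 50 µM zinc acetate. The binding signal is per-feature fluorescence intensity, in arbitrary units, on an Axon 4000B scanner.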

Sequence	binding signal
ATATCAATCTCTTCTCCTCATCGATCCTCAACATCTCCCTCGGAGTCACCTAGTGCAG	8210 fluorescence intensity (a.u.)
GAAGTCATGCTTATGTCTGCATCCGTTTCTTGCTTTGACTCGGAGTCACCTAGTGCAG	11400 fluorescence intensity (a.u.)
CGGTAGTGCGTTAGGTCTTCTCCAAGTCTCTTGGCTTTTACGGAGTCACCTAGTGCAG	11100 fluorescence intensity (a.u.)
CTCCGGGCTCACAGTTTCTTGATTTCCCCATTCTTTTTTCCGGAGTCACCTAGTGCAG	9010 fluorescence intensity (a.u.)
GACTTGACCGTTTTTCAATTTCGCTTCGGACAAAAATATGCGGAGTCACCTAGTGCAG	9210 fluorescence intensity (a.u.)
CAAAACATTACAATTCCACGAGTCCGCGACCTGTTCTACTCGGAGTCACCTAGTGCAG	9990 fluorescence intensity (a.u.)
GCAACACGATCTCGTCGATCTCGTCCTCGACCCTTCAGAACGGAGTCACCTAGTGCAG	8850 fluorescence intensity (a.u.)
ATATGGCCACTCGTCCATCTCTCGTTTTCTCCAGCCAGGTCGGAGTCACCTAGTGCAG	8150 fluorescence intensity (a.u.)
CGTCCTGCTGCTCCCGCTGCATCCGTTACGCACGTCCTCTCGGAGTCACCTAGTGCAG	8620 fluorescence intensity (a.u.)
GTGCCGTGAGCCGTGTCGACCGTGGTCGCCCTCCAAAGTCCGGAGTCACCTAGTGCAG	9250 fluorescence intensity (a.u.)
AATTTTGATAGATGTGGGATGTGTTGTAATTTGTAAATTTCGGAGTCACCTAGTGCAG	8270 fluorescence intensity (a.u.)
GCCATCTTGCGAGAAATGGCTGCCTCCGGCGTTGACTCGGCGGAGTCACCTAGTGCAG	11200 fluorescence intensity (a.u.)
TCTCCTTTGCTGTCGGTGCTCCTCTTCTCCTTCTCTGTGCCGGAGTCACCTAGTGCAG	8040 fluorescence intensity (a.u.)
TCTTATCTGCTTGTCCATTCCGTTCCCGTCCGCTAGGTCCCGGAGTCACCTAGTGCAG	8180 fluorescence intensity (a.u.)
AAACAGGTAACAATTTATTCTATGTCGGCTTATTATAATCCGGAGTCACCTAGTGCAG	8750 fluorescence intensity (a.u.)
GCCATTCATATGTTTTTCCTATGTTTTGCAATCCTCTGTTCGGAGTCACCTAGTGCAG	13200 fluorescence intensity (a.u.)
CGTACGCCTCTATATATGCCTCTTCAAACGCCTCTCGCATCGGAGTCACCTAGTGCAG	10000 fluorescence intensity (a.u.)
GCCTCACTCATCATCGGGTCCCGCATCACTTTTGTTTGAACGGAGTCACCTAGTGCAG	9340 fluorescence intensity (a.u.)
TTCGCCGTCGCCTTGCTTAGCCTAGGGTTTTTCTCACACTCGGAGTCACCTAGTGCAG	9970 fluorescence intensity (a.u.)
TTTTCCCTTTTACTCCATCCCATTTTGATCATCCCCTAAACGGAGTCACCTAGTGCAG	9320 fluorescence intensity (a.u.)
CTCATTGTTGTTGTGTTGTTGCGTTTGGTTTGGTGTGCTCCGGAGTCACCTAGTGCAG	8510 fluorescence intensity (a.u.)

An excerpt of these results, comma-delimited.
Sequence,binding signal
GAAGTCATGCTTATGTCTGCATCCGTTTCTTGCTTTGACTCGGAGTCACCTAGTGCAG,11400 fluorescence intensity (a.u.)
CGGTAGTGCGTTAGGTCTTCTCCAAGTCTCTTGGCTTTTACGGAGTCACCTAGTGCAG,11100 fluorescence intensity (a.u.)
CTCCGGGCTCACAGTTTCTTGATTTCCCCATTCTTTTTTCCGGAGTCACCTAGTGCAG,9010 fluorescence intensity (a.u.)
GACTTGACCGTTTTTCAATTTCGCTTCGGACAAAAATATGCGGAGTCACCTAGTGCAG,9210 fluorescence intensity (a.u.)
GCAACACGATCTCGTCGATCTCGTCCTCGACCCTTCAGAACGGAGTCACCTAGTGCAG,8850 fluorescence intensity (a.u.)
CGTCCTGCTGCTCCCGCTGCATCCGTTACGCACGTCCTCTCGGAGTCACCTAGTGCAG,8620 fluorescence intensity (a.u.)
GTGCCGTGAGCCGTGTCGACCGTGGTCGCCCTCCAAAGTCCGGAGTCACCTAGTGCAG,9250 fluorescence intensity (a.u.)
TCTCCTTTGCTGTCGGTGCTCCTCTTCTCCTTCTCTGTGCCGGAGTCACCTAGTGCAG,8040 fluorescence intensity (a.u.)
TCTTATCTGCTTGTCCATTCCGTTCCCGTCCGCTAGGTCCCGGAGTCACCTAGTGCAG,8180 fluorescence intensity (a.u.)
GCCATTCATATGTTTTTCCTATGTTTTGCAATCCTCTGTTCGGAGTCACCTAGTGCAG,13200 fluorescence intensity (a.u.)
GCCTCACTCATCATCGGGTCCCGCATCACTTTTGTTTGAACGGAGTCACCTAGTGCAG,9340 fluorescence intensity (a.u.)
TTCGCCGTCGCCTTGCTTAGCCTAGGGTTTTTCTCACACTCGGAGTCACCTAGTGCAG,9970 fluorescence intensity (a.u.)
TTTTCCCTTTTACTCCATCCCATTTTGATCATCCCCTAAACGGAGTCACCTAGTGCAG,9320 fluorescence intensity (a.u.)
CTCATTGTTGTTGTGTTGTTGCGTTTGGTTTGGTGTGCTCCGGAGTCACCTAGTGCAG,8510 fluorescence intensity (a.u.)

Remaining list, next part

Sequence	binding signal
ACTTATATTTTTTTAACGTTTGATTGTTCGTCTTATTAAACGGAGTCACCTAGTGCAG	9470 fluorescence intensity (a.u.)
AGAACGAACTCAATGAATATATTACCTATTTGCATTTTGCCGGAGTCACCTAGTGCAG	8540 fluorescence intensity (a.u.)
CCCTCGCGCCTCCGCCACCTCCTCTGTCGCCGCCATCGCCCGGAGTCACCTAGTGCAG	13400 fluorescence intensity (a.u.)
ACATCCCAAGCTTCCCAAGCACACACTGTTTTAGTGTTCACGGAGTCACCTAGTGCAG	10100 fluorescence intensity (a.u.)
AGAGAGAGACTCAGGGAGGGTTTCGTTTCCGTTTCTTGCGCGGAGTCACCTAGTGCAG	9520 fluorescence intensity (a.u.)
ACTCACTTTAGATTTTTTTTTCCAACATGATCGTCTGTCTCGGAGTCACCTAGTGCAG	11800 fluorescence intensity (a.u.)
TTTATAGAGGTCATCCTCGTTTACTTAGCCCATTTCATACCGGAGTCACCTAGTGCAG	9640 fluorescence intensity (a.u.)
TGTCGTCCTTCAGGCCAACTTTGTCTTCCTTTGTTTCGACCGGAGTCACCTAGTGCAG	16400 fluorescence intensity (a.u.)
TAAGTTAAACTCTTTGTCGCATGCATAACGTTTTCATTATCGGAGTCACCTAGTGCAG	9370 fluorescence intensity (a.u.)
CATCACCACCATACAATCTCATGTTTTATTCTCAACTTATCGGAGTCACCTAGTGCAG	8350 fluorescence intensity (a.u.)
TACGTCATCCGTATTTGAGTCGGTTTTTATGTTTGTTCGCCGGAGTCACCTAGTGCAG	12800 fluorescence intensity (a.u.)
CATACAAGTTAATAGGTTAGGTTGAGGGGTATTGAAGGGGCGGAGTCACCTAGTGCAG	8110 fluorescence intensity (a.u.)
CTTGGGCTGCTAGTTCGGCAACGATAACACCTCTTCTGTGCGGAGTCACCTAGTGCAG	8770 fluorescence intensity (a.u.)
ATAAAAGGCCCACATTGCGAGCCCAGCCCAACTCCGCCACCGGAGTCACCTAGTGCAG	8230 fluorescence intensity (a.u.)
AAACTACCATGGGACTTATATTGCTCCGGTTTTGATAGTTCGGAGTCACCTAGTGCAG	8480 fluorescence intensity (a.u.)
TTCGGGGATTTTGTTTGTATGTTGAAGTTGGAAAGTAGATCGGAGTCACCTAGTGCAG	10700 fluorescence intensity (a.u.)
CCGGAACAGCGCCGCCTCGTGTCCGCCACGCCATTTTTTTCGGAGTCACCTAGTGCAG	9420 fluorescence intensity (a.u.)
TGGTTTTCTATCAGCGTCGTCTATATTTGCTAGTTTGATTCGGAGTCACCTAGTGCAG	10200 fluorescence intensity (a.u.)
CTTCCTTAGTCCCGGTTGTTTTTTTTTTCATTGTTTTTTTCGGAGTCACCTAGTGCAG	10000 fluorescence intensity (a.u.)
CTTTTAATTCCTTGCACCTGTCTACTGCTAGACATGCAACCGGAGTCACCTAGTGCAG	8460 fluorescence intensity (a.u.)
ACCTCGTCAGGTTTCCGTTCCGCCTCCGCCTCTGCTGCTCCGGAGTCACCTAGTGCAG	8330 fluorescence intensity (a.u.)

Sequence	binding signal
ACTCCATGTTTTTGTCTGATTGAGTGCCCGTGCTCCGTCCCGGAGTCACCTAGTGCAG	10200 fluorescence intensity (a.u.)
CAACGAGATGAACATGGAAACACGCCGCTACACTTCTCTCCGGAGTCACCTAGTGCAG	8160 fluorescence intensity (a.u.)
CCGTGCGCATCCACCATGGCCTTCTTGTGCGCATCGATCACGGAGTCACCTAGTGCAG	9020 fluorescence intensity (a.u.)
AGCGGGTGGGGTGTATAGGAGTACAGTTGTAGAGTCACCACGGAGTCACCTAGTGCAG	10900 fluorescence intensity (a.u.)
AAAGTGATGTGGTGGTGGAGTTGTGGGTATATGATTTTATCGGAGTCACCTAGTGCAG	8790 fluorescence intensity (a.u.)
CGTGAACTACTTGACTCTTCTCTTCATGCGTTTTCTTCAGCGGAGTCACCTAGTGCAG	12100 fluorescence intensity (a.u.)
TACTAGCTGATTTTGTCATTACCTTTTGGCCGTATTCGCCCGGAGTCACCTAGTGCAG	10200 fluorescence intensity (a.u.)
CCATCGAGCCATCAACCAACACGCTCTATCTGTTTACTCTCGGAGTCACCTAGTGCAG	9460 fluorescence intensity (a.u.)
CCACCACCACCCTCTCCACCTCCGCCACCACCAAAATCCGCGGAGTCACCTAGTGCAG	8850 fluorescence intensity (a.u.)
CTTCGGTATTGTATAGATATGGGACTGTCTCCCGGAGGTTCGGAGTCACCTAGTGCAG	9840 fluorescence intensity (a.u.)
ACCTGTATTTGTCATTATTTAGTGGACTCTGCTTAGTTCTCGGAGTCACCTAGTGCAG	19300 fluorescence intensity (a.u.)
ATATGTTCTCCTAATCCACCGACAGTTAAGTACCTTTTTTCGGAGTCACCTAGTGCAG	8600 fluorescence intensity (a.u.)
TTCTATCTTGCTCGCTGTGGGCTTGGTGGCCTTGGAGTTGCGGAGTCACCTAGTGCAG	8090 fluorescence intensity (a.u.)
CACCTAGCACGAACACCCAACGCCGCCGCTCGATCTCATCCGGAGTCACCTAGTGCAG	8920 fluorescence intensity (a.u.)
CCCACCTGCGTGGGGTCAACCGGTCAACGCGCCACACGCTCGGAGTCACCTAGTGCAG	9520 fluorescence intensity (a.u.)
GTACCTTGTCCTATTTTCCATGCCAGCCAAGCATCCAACCCGGAGTCACCTAGTGCAG	8140 fluorescence intensity (a.u.)
ATATCTTCTCCTATCTCATTTCTCAACTGAATGACTCGATCGGAGTCACCTAGTGCAG	8430 fluorescence intensity (a.u.)
ATCCAAACCCACGCACACACTCTTTTCTCTCCTCTCCTTCCGGAGTCACCTAGTGCAG	10500 fluorescence intensity (a.u.)
CTCCAGTCCAGACTTGTTTAGTTTTAAACCTAAATTTTACCGGAGTCACCTAGTGCAG	8050 fluorescence intensity (a.u.)
GATTGTTTCCCTATTGAATTTCTGGTCGTTACCTAATTTGCGGAGTCACCTAGTGCAG	8090 fluorescence intensity (a.u.)
AGCAGCCTACACTCGCCAACAAAAGTACTACCACCTCACGCGGAGTCACCTAGTGCAG	8060 fluorescence intensity (a.u.)

Sequence	binding signal
ACCTTTTCCCATCCCCTTTCCCTCGTTTTCCGCGTGCACGCGGAGTCACCTAGTGCAG	8590 fluorescence intensity (a.u.)
CGCACTATCGCTTGCTTTCCTTGGGCGTCGGTCCAGCCAACGGAGTCACCTAGTGCAG	8160 fluorescence intensity (a.u.)
CATTATTATTTTCTCTGTCAATATTTGATTCTAACCGATCCGGAGTCACCTAGTGCAG	8240 fluorescence intensity (a.u.)
TTTATCCTCCTTTGACTTCCCACATATTTCTTTACCTACTCGGAGTCACCTAGTGCAG	9430 fluorescence intensity (a.u.)
GCTCCTCGTCGTCGTCTCTCTCTCCTGCCTAGCTCTGGCCCGGAGTCACCTAGTGCAG	9190 fluorescence intensity (a.u.)
CGCGCGCGCGCGCGTACGTGGGAACAGAGAGCGGCGCCGACGGAGTCACCTAGTGCAG	27900 fluorescence intensity (a.u.)
CTTTCTTTCTTTCTTTGTGCCCAACTCTGACACGACTCACCGGAGTCACCTAGTGCAG	10800 fluorescence intensity (a.u.)
TCTTCCACCAAGAACACCTTGTTCATCCTCTGCTCCGCGTCGGAGTCACCTAGTGCAG	8560 fluorescence intensity (a.u.)
TATACTGGTAGCTTATTAGCCTCAATCACCCTCCTGTTTCCGGAGTCACCTAGTGCAG	8140 fluorescence intensity (a.u.)
AATGTCTAATCAAGTAATCATCATGTGGTCAATTATCACACGGAGTCACCTAGTGCAG	8240 fluorescence intensity (a.u.)
TTTTTGGGTTGATATATTGCTGAATGGTCATTTTCTGGGTCGGAGTCACCTAGTGCAG	9890 fluorescence intensity (a.u.)
GCGGCGGCGGCGGGGAGGGGTGCTTCTGCCACCTGCTCCGCGGAGTCACCTAGTGCAG	13400 fluorescence intensity (a.u.)
TACTTTACATCGTTGCTTCATGTAATACATTAATTTATACCGGAGTCACCTAGTGCAG	8460 fluorescence intensity (a.u.)
CTCCTCTTCTTCTCTTCTCCTTCGTTGGGCGTGGGCGTCGCGGAGTCACCTAGTGCAG	12400 fluorescence intensity (a.u.)
GTGGTGGTGGTGGTCGCCGTCGTGAACGATTCCTTTTTCTCGGAGTCACCTAGTGCAG	14300 fluorescence intensity (a.u.)
CCTATCGTCTGTAAACTGCATTTCGCCATATAGCTTTGTTCGGAGTCACCTAGTGCAG	8270 fluorescence intensity (a.u.)
ATCTGTAACCCGCTGCTCTTTTCTCTCCTTATTTATCTTCCGGAGTCACCTAGTGCAG	9180 fluorescence intensity (a.u.)
GGAATTCAGGGAAATGTCTCTCTCCTCCACGCTGCATTGTCGGAGTCACCTAGTGCAG	9260 fluorescence intensity (a.u.)
TCTGTTTTGGTATGGGGAACCTGCCCTGTCGTTGTCAAGTCGGAGTCACCTAGTGCAG	11700 fluorescence intensity (a.u.)
GCTCCGTCCGTTCACACGCGCCGTCACGCGTACGACTCCGCGGAGTCACCTAGTGCAG	10200 fluorescence intensity (a.u.)
TGATAATATGGTCCATTAACTTCTACCTTTACCTATCGTTCGGAGTCACCTAGTGCAG	10700 fluorescence intensity (a.u.)
